The values that follow come from patent US20170198027A1 (priority 2012, published 2017).

This experiment has as its system ApoE ko mice fed with high fat diet. An excerpt: 10 ApoE ko mice were fed with regular chow diet and used as negative control group. 50 ApoE ko mice were fed with high fat diet (35% kcal fat, 1% cholesterol) for 8 weeks, and then the plasma samples were collected for lipid profile measurement before the treatment. 50 ApoE ko mice were assigned into 5 groups based on the fasting overnight plasma TC and HDL level.
19 Mar. 2012 to 6 Apr. 2012: Group the mice based on the TC and HDL level and start the treatment with 3 doses of antibody APOA1 by i.p daily on the weekday (The first dose was administered by iv injection
13 Apr. 2012-14 May 2012: The treatment with antibody APOA1 was changed to i.p injection every two days (Monday, Wednesday, and Friday) per client's instruction.
Antibody products were administrated by intraperitoneal injection every two days (Monday, Wednesday, and Friday). and the positive compound was administered by p.o every day.
5.4. Body weight and blood glucose measurement: The body weight was weighed weekly during the period of treatment. The fasting overnight blood glucose was measured at the end of study by Roche glucometer.
5.5 24 h food intake measurement: 24 hours food intake for each cage was measured weekly
5.6. Plasma lipid profile measurement: About 300 ul of blood sample was collected from the orbital vein for each mouse and centrifuged at 7000 rpm for 5 min at 4° C. and the plasma lipid profile was measured by Roche Modular automatic biochemistry analyzer in DaAn Medical Laboratory
After RAAS antibody products treatment for 8 weeks, all mice were sacrificed. Measured body weight and collected blood sample for each mouse. Weighed liver weight and saved a tiny piece of liver into 4% paraformaldehyde (PFA) fixation solution for further analysis. […]
Scanning the glasses slides with the Aperio ScanScope system and analyze with the image proplus software to measure the area of atherosclerotic plaque session. The results were expressed as the percentage of the total aortic surface area covered by lesions. […]
The results were expressed as the Mean±SEM and statistically evaluated by student's t-test.

For `CC(C)c1c(C(=O)Nc2ccccc2)c(-c2ccccc2)c(-c2ccc(F)cc2)n1CC[C@@H](O)C[C@@H](O)CC(=O)O` [Atorvastatin, reference compound], the “plasma HDL” value (after 8 week treatment) was “significantly lower high density lipoprotein”. Moreover, where the note is “after 8 week treatment, APOA1 low dose”, the “plasma total cholesterol (TC)” value is reported as “significantly lower total cholesterol level”. Besides, the “plasma TG level” value (after 8 weeks treatment) is reported as “no effect”.
